Results on three molecules are retold here after paper PMC11652890.

Assay [1] concerns the target T1, FHL2-3×Flag (UniProt Q14192).
T1 sequence: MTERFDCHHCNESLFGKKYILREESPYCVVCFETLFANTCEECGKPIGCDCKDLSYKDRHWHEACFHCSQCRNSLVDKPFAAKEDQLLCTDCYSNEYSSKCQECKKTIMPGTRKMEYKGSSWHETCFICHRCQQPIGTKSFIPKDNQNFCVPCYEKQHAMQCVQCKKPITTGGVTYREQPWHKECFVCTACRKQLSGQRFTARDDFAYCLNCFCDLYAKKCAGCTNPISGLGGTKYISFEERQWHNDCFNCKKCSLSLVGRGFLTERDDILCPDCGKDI
As to the kind of experiment: co-IP; RAW264.7 cells overexpressing FHL2-3×Flag for 48 hours; anti-Flag magnetic beads; blot for TRAF6.

Assay [2] deals with T1, FHL2-3×Flag. Briefly: co-IP; competition: FHL2-3×Flag with rising levels of 6×CASB_(135-150)-HA (or with the Mut construct) co-expressed; anti-Flag magnetic beads; blot for TRAF6; cells RAW264.7 by the legend, 293T by the text.
Assay [3] deals with T1, FHL2-3×Flag. As to the kind of experiment: co-IP; FHL2-3×Flag co-expressed with 6×CASB_(135-150)-HA or 6×CASB_(135-150)(Mut)-HA in RAW264.7 cells; anti-Flag magnetic beads; IP lysis buffer (Tris pH 7.5, 150 mM NaCl, 0.5% NP-40); blot for HA.
The target in assay [4] is T2, 6×CASB_(135-150)-HA (human).
T2 sequence: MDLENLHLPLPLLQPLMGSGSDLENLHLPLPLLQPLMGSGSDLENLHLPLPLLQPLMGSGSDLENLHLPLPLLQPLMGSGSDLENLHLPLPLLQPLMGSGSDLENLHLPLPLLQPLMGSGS
As to the kind of experiment: co-IP; RAW264.7 cells overexpressing 6×CASB_(135-150)-HA; anti-HA magnetic beads; IP lysis buffer (Tris pH 7.5, 150 mM NaCl, 0.5% NP-40); 6 washes with PBS; blot for FHL2.

No constants are given. Whether binding was seen depends on the method and setting. In cells and extracts the contact can be indirect. Some binding calls cover weakened binding; strength is not graded here. Tags and fused reporters may be left off the sequences shown.

B1: TNF receptor-associated factor 6 (TRAF6) (protein, UniProt P70196 1-530)
chain: MSLLNCENSCGSSQSSSDCCAAMAASCSAAVKDDSVSGSASTGNLSSSFMEEIQGYDVEFDPPLESKYECPICLMALREAVQTPCGHRFCKACIIKSIRDAGHKCPVDNEILLENQLFPDNFAKREILSLTVKCPNKGCLQKMELRHLEDHQVHCEFALVNCPQCQRPFQKCQVNTHIIEDCPRRQVSCVNCAVSMAYEEKEIHDQSCPLANIICEYCGTILIREQMPNHYDLDCPTAPIPCTFSVFGCHEKMQRNHLARHLQENTQLHMRLLAQAVHNVNLALRPCDAASPSRGCRPEDPNYEETIKQLESRLVRQDHQIRELTAKMETQSMYVGELKRTIRTLEDKVAEMEAQQCNGIYIWKIGNFGMHLKSQEEERPVVIHSPGFYTGRPGYKLCMRLHLQLPTAQRCANYISLFVHTMQGEYDSHLPWPFQGTIRLTILDQSEALIRQNHEEVMDAKPELLAFQRPTIPRNPKGFGYVTFMHLEALRQGTFIKDDTLLVRCEVSTRFDMGGLRKEGFQPRSTDAGV
Consider B1, for which the binding entry with FHL2-3×Flag [1] and with FHL2-3×Flag [2] was “binds” throughout.

B2: 6×CASB_(135-150)-HA (protein)
chain: T2 sequence
With B2, the binding entry with FHL2-3×Flag [3] is given as “binds”.

B3: FHL2 (endogenous, RAW264.7) (protein, UniProt O70433 1-279)
chain: MTERFDCHHCNESLYGKKYILKEENPHCVACFEELYANTCEECGTPIGCDCKDLSYKDRHWHEGCFHCSRCGSSLVDKPFAAKEEQLLCTDCYSNEYSSKCQECKKTIMPGTRKMEYKGSSWHETCFTCQRCQQPIGTKSFIPKENQNFCVPCYEKQYALQCVQCKKPITTGGVTYREQPWHKECFVCTACKKQLSGQRFTARDEFPYCLTCFCDLYAKKCAGCTNPISGLGGTKYISFEERQWHNDCFNCKKCSLSLVGRGFLTERDDILCPDCGKDI
As to B3, the binding entry in assay [4] is “binds”.
